{"source": "PubChem BioAssay AID540256", "about": "(National Center for Advancing Translational Sciences (NCATS), 2011)", "note": "Hit rate of the full screen: of about 300,000 compounds, about 3,700 (1.2%) were called active. The inconclusive results got no clear call from the source; some entries with a clear call stand among them for comparison. The call rests on the fitted dose curve; tested in HEK293 cells. Where the call is inconclusive, the potency comes from a doubtful curve fit. On the % scale 0 is the no-effect control and ±100 the full control effect; potency means the concentration at half of the fitted maximal effect."}
{"assay": "qHTS for Inhibitors of binding or entry into cells for Lassa Virus; further: nearly all actives have a fitted effect of over 50% in size", "settings": "Lassa virus pseudotype entry inhibition, cell reporter; activity change, negative = inhibition: at 37.9 µM (top of the series) unless noted"}
{"smiles": "N/C(=N\\OC(=O)c1ccccc1Cl)c1ccccn1", "Potency": "active: 2.06 µM"}
{"smiles": "Cc1cccc(C)c1NC(=O)/C(C#N)=C/c1ccc(-c2ccc(C(=O)O)cc2)o1", "Potency": "inconclusive: 1.58 µM [activator, partial curve, poor fit]"}
{"smiles": "CCN(c1ccccc1)S(=O)(=O)c1nnc(NC(=O)C(C)(C)C)s1", "Potency": "inconclusive: 2.82 µM [activator, full curve, poor fit]"}
{"smiles": "Cc1cccc(C)c1NC(=O)CNC(=O)c1ccncc1", "Potency": "inconclusive: 3.16 µM [activator, full curve]"}
{"smiles": "Cn1nccc1C(=O)Nc1ccc2c(c1)OCCO2", "Potency": "inconclusive: 20.6 µM [inhibitor, partial curve, poor fit]"}
{"smiles": "COc1ccc(C2(O)C(=O)Nc3ccccc32)cc1", "note": "(stereo unspecified)", "Potency": "inconclusive: 2 µM [inhibitor, partial curve, poor fit]"}
{"smiles": "COc1cc(OC)c(NC(=O)N2CCOCC2)cc1Cl", "Potency": "inconclusive: 35.5 µM [activator, single point]"}
{"smiles": "CN(C(=O)C1CCOC1)c1nnc(-c2cccnc2)s1", "note": "(stereo unspecified)", "Potency": "inconclusive: 1.26 µM [activator, single point]"}
{"smiles": "CCOCCCNC(=S)N(Cc1ccco1)Cc1cc2cc3c(cc2[nH]c1=O)OCCO3", "Potency": "inconclusive: 3.16 µM [inhibitor, single point]"}
{"smiles": "COc1ccc(CNC(=O)CCNC(=O)c2ccco2)cc1OC", "Potency": "inconclusive: 6.31 µM [inhibitor, single point]"}
{"smiles": "Cc1ccc2c(c1)nnn2C1CCN(C(=O)C23CC4CC(CC(C4)C2)C3)CC1", "activity change, negative = inhibition": "inactive: -6.19%"}
{"smiles": "O=C(CSc1nc(Nc2ccccc2)nc(N2CCOCC2)n1)Nc1cccc([N+](=O)[O-])c1", "Potency": "inconclusive: 20 µM [inhibitor, partial curve, poor fit]"}
{"smiles": "CSc1ncc(C(=O)Nc2cccc(C)c2C)c(-c2ccccc2)n1", "activity change, negative = inhibition": "inactive: 8.55% [at 46.1 µM]"}
{"smiles": "COc1cccc2c(N/N=C/c3ccc(O)c(O)c3)cc(C)nc12", "activity change, negative = inhibition": "inactive: -4.39% [at 46.1 µM]"}
{"smiles": "O=C(/C=C/c1ccc(S(=O)(=O)N2CCOCC2)cc1)N1CCN(c2ccc(F)cc2)CC1", "Potency": "inconclusive: 7.94 µM [inhibitor, partial curve, poor fit]"}
{"smiles": "CC12CCC(C(=O)N3CCC(Cc4ccccc4)CC3)(C(=O)C1=O)C2(C)C", "note": "(stereo unspecified)", "Potency": "inconclusive: 12.6 µM [inhibitor, partial curve, poor fit]"}
{"smiles": "CC(=O)OC(C)(C)/C=C/C(=O)C(C)(O)C1[C@H](O)C[C@@]2(C)C3CC=C4C(CC[C@@H](O)C4(C)C)[C@]3(CO)C(=O)C[C@]12C", "note": "(stereo partly specified)", "Potency": "inconclusive: 0.141 µM [inhibitor, full curve, poor fit]"}
{"smiles": "COc1cc(C(=O)NNC(=O)c2ccccc2Br)ccc1OCC(=O)N1CCOCC1", "activity change, negative = inhibition": "inactive: 9.88%"}
{"smiles": "CN(C)Cc1nc2c(c(=O)[nH]1)C1(CCCCC1)Cc1ccccc1-2", "Potency": "inconclusive: 13 µM [inhibitor, partial curve]"}
{"smiles": "COc1ccc2c(=O)c(-c3nc(C)cs3)coc2c1", "Potency": "inconclusive: 13 µM [inhibitor, single point]"}
{"smiles": "CC(=O)Nc1ccc(S(=O)(=O)N2C3CCCC2CC(NC(=O)C2CCCCC2)C3)cc1", "note": "(stereo unspecified)", "Potency": "inconclusive: 9.2 µM [inhibitor, partial curve, poor fit]"}
{"smiles": "COc1ccc(/C(C)=N/NC(=O)CNC(=O)/C=C/c2ccccc2OC)cc1", "Potency": "inconclusive: 8.91 µM [inhibitor, partial curve]"}
{"smiles": "Cc1ccc(S(=O)(=O)N(CC(O)CN2C(=O)NC(C)(C)C2=O)c2cccc(C)c2)cc1", "note": "(stereo unspecified)", "activity change, negative = inhibition": "inactive: -8.92%"}
{"smiles": "CCCCNC(=O)c1cc2c(=O)n3cccc(C)c3nc2n(Cc2ccccc2)c1=N", "Potency": "inconclusive: 29.1 µM [inhibitor, single point]"}
{"smiles": "O=C(NC1CCCC1)C(c1ccccc1)N(Cc1ccc2c(c1)OCO2)C(=O)Cc1cccs1", "note": "(stereo unspecified)", "Potency": "inconclusive: 11.2 µM [inhibitor, partial curve, poor fit]"}
{"smiles": "O=C(CN(Cc1ccco1)C(=O)CNS(=O)(=O)c1ccc(Cl)cc1)NCC1CCCO1", "note": "(stereo unspecified)", "activity change, negative = inhibition": "inactive: -12%"}
{"smiles": "CCn1c(=S)sc2c(=O)n(CC(=O)NCCCc3ccccc3)c(C)nc21", "activity change, negative = inhibition": "inactive: -2.9% [at 46.1 µM]"}
{"smiles": "CC(c1ccccc1)N1C(=O)c2ccc(C(=O)NCc3cccnc3)cc2C1=O", "note": "(stereo unspecified)", "Potency": "inconclusive: 1.26 µM [inhibitor, single point]"}
{"smiles": "CCN(CC)S(=O)(=O)c1ccc2c(c1)nc(CN(C)C(=O)Nc1cccc(Cl)c1)n2C", "Potency": "inconclusive: 3.16 µM [activator, full curve]"}
{"smiles": "COc1ccc(Cn2c(CCC(=O)Nc3ccc(C)c(C)c3)nc3cccnc32)cc1", "Potency": "inconclusive: 29.1 µM [inhibitor, single point]"}
{"smiles": "C=CCn1c(SCC(=O)c2cccs2)nc2sc(C)cc2c1=O", "Potency": "inconclusive: 20.6 µM [inhibitor, single point]"}
{"smiles": "COC(=O)c1ccc(NC(=O)c2ccccc2N(C)S(=O)(=O)c2ccccc2)cc1", "Potency": "inconclusive: 10 µM [inhibitor, partial curve]"}
{"smiles": "O=C(c1cccs1)N1CCN(S(=O)(=O)c2cccc(Cl)c2Cl)CC1", "Potency": "inconclusive: 5.62 µM [inhibitor, single point]"}
{"smiles": "O=C(NNC(=O)C1CC1)c1cc(=O)[nH]c2ccccc12", "activity change, negative = inhibition": "inactive: 25.9%"}
{"smiles": "Cn1ncc(Br)c1C(=O)Nc1c(F)c(F)cc(F)c1F", "Potency": "inconclusive: 1.16 µM [activator, partial curve, poor fit]"}
{"smiles": "COc1ccc(OCCn2c(C(C)Oc3ccccc3)nc3ccccc32)cc1", "note": "(stereo unspecified)", "activity change, negative = inhibition": "inactive: -20% [at 46.1 µM]"}
{"smiles": "COc1cc(NC(=S)NCCc2c[nH]c3ccccc23)c(OC)cc1Cl", "Potency": "inconclusive: 14.1 µM [inhibitor, partial curve, poor fit]"}
{"smiles": "COC(=O)C(C)NC(=O)CNS(=O)(=O)c1ccc(F)cc1", "note": "(stereo unspecified)", "activity change, negative = inhibition": "inactive: -17.1% [at 46.1 µM]"}
{"smiles": "Cc1occc1-c1nnc(SCC(=O)N2CCN(c3ccc(F)cc3)CC2)n1C", "activity change, negative = inhibition": "inactive: -6%"}
{"smiles": "C/C(=N\\NC(=O)c1ccccc1OCCOc1ccccc1)c1ccccc1F", "Potency": "inconclusive: 17.8 µM [inhibitor, single point]"}
{"smiles": "O=C(CSc1nc2nc(-c3cccs3)cc(C(F)(F)F)c2c(=O)[nH]1)Nc1ccc(F)c(F)c1", "Potency": "inconclusive: 35.5 µM [inhibitor, single point]"}
